Laboratory results as given in paper PMC11271275, “The structural insight into the functional modulation of human anion exchanger 3” (Nature Communications, 2024).
Results are given in words; binding and its absence hold for the method and conditions named. Binding can be weak; no strength is given.

Target: T1, Transmembrane domain (TMD) of human AE2, as it stands in the hAE3^NTD2^TMD chimera (human) (UniProt P04920)
T1 sequence: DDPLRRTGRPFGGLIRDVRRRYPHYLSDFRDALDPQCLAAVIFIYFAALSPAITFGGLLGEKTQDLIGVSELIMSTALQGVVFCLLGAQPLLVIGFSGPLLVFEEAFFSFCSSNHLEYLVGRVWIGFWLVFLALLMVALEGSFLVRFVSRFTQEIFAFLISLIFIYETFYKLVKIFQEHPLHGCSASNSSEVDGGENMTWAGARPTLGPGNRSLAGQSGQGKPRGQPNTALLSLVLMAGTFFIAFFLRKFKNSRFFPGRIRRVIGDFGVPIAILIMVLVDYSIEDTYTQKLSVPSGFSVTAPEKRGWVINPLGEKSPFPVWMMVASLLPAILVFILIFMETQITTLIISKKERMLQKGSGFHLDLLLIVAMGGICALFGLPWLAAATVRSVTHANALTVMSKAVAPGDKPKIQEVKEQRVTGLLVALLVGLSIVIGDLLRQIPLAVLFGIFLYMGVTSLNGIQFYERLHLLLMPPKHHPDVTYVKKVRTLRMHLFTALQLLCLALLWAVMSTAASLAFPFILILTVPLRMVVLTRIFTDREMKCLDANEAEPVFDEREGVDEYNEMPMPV
Assay: cryo-EM structure; hAE3^NTD2^TMD chimera in GDN; 300 kV Titan Krios, C2 symmetry; 3.35 Å; TMDs inward-facing; both purified

binding: binds
Substance: N-terminal domain (NTD) of human AE3, as it stands in the hAE3^NTD2^TMD chimera (domain or fragment)
